# From PubChem BioAssay AID686929 (Broad Institute, 2013)
# The source calls these results inconclusive, neither active nor inactive. How the calls were made is not given here.
# Test: V. cholerae BH1578 lux luminescence induction, luxS cqsA deficient, confirmatory dose response (AID 686929)
# Details: 6 h
structure (smiles),measurement,setting,value
O=c1ncn(-c2cccc(Cl)c2)c2ccccc12,activation (light induction),at 80 µM (top of the series),inconclusive: 10.9%
same,activation (light induction),at 100 µM (top of the series),inconclusive: 7.59%
